Measurements reported in PubChem BioAssay AID1159591 (NIAID, 2016).
Shown is an unselected part of 756 deposited reagents. Of all reagents, 130 (17%) got an active call. 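Active calls include both lower and higher Tnf reporter signal.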 A number with no mark means an inactive call. The numbers tell different reagents against one gene apart. Not stated in the record: the amount of reagent.

Aim: 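Which TLR signalling genes macrophages need for R848-driven Tnf promoter activity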
Cell system: mouse RAW264.7 G9 macrophage reporter clone (GFP-p65, Tnf promoter-mCherry)
Reagent: single siRNA against mouse genes
Time to read-out: cells assayed 48 to 72 hours after siRNA transfection; R848 for 16 hours before fixing
Challenge: R848 (TLR7/8 agonist) for 16 hours before fixation; dose not given
Read-out: 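mCherry Tnf promoter reporter in nuclei imaged after 16 hours of R848, background removed, robust z relative to non-targeting controls using plate median and MAD, replicate average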
Direction: mean Tnf reporter z-score: higher = stronger Tnf promoter reporter signal than controls
Rule for the call: 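Activity score from absolute z: steps above 1, 1.5, 2 and 2.5 give 25 to 100; active cut not stated, but active genes here sit near z -1.5 or below, or 1.5 or above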
Meaning of the calls: active = reporter clearly up or down; inactive = little reporter change

Target gene | reagent | mean Tnf reporter z-score
Irf5 (interferon regulatory factor 5) | 1 | -3.28 (active)
Irf5 (interferon regulatory factor 5) | 2 | 0.25
Irf5 (interferon regulatory factor 5) | 3 | 0.127
Irf5 (interferon regulatory factor 5) | 4 | -0.637
Irf5 (interferon regulatory factor 5) | 5 | -0.167
Irf5 (interferon regulatory factor 5) | 6 | -0.749
Ets1 (Ets proto-oncogene 1, transcription factor) | 1 | 0.183
Ets1 (Ets proto-oncogene 1, transcription factor) | 2 | 0.883
Ets1 (Ets proto-oncogene 1, transcription factor) | 3 | -1.09
Ets1 (Ets proto-oncogene 1, transcription factor) | 4 | 1.59 (active)
Ets1 (Ets proto-oncogene 1, transcription factor) | 5 | 0.262
Ets1 (Ets proto-oncogene 1, transcription factor) | 6 | -0.98
Crebbp (CREB binding protein) | 1 | 0.679
Crebbp (CREB binding protein) | 2 | -2.35 (active)
Crebbp (CREB binding protein) | 3 | -1.76 (active)
Crebbp (CREB binding protein) | 4 | -0.186
Crebbp (CREB binding protein) | 5 | -3.77 (active)
Crebbp (CREB binding protein) | 6 | -0.459
Otud5 (OTU domain containing 5) | 1 | 0.112
Otud5 (OTU domain containing 5) | 2 | -1.34
Otud5 (OTU domain containing 5) | 3 | -0.899
Otud5 (OTU domain containing 5) | 4 | -0.683
Otud5 (OTU domain containing 5) | 5 | -1.58 (active)
Otud5 (OTU domain containing 5) | 6 | -0.6
Mapk12 (mitogen-activated protein kinase 12) | 1 | 0.522
Mapk12 (mitogen-activated protein kinase 12) | 2 | -0.842
Mapk12 (mitogen-activated protein kinase 12) | 3 | -1.61 (active)
Mapk12 (mitogen-activated protein kinase 12) | 4 | 0.63
Mapk12 (mitogen-activated protein kinase 12) | 5 | 0.171
Mapk12 (mitogen-activated protein kinase 12) | 6 | -1.57 (active)
Tbk1 (TANK-binding kinase 1) | 1 | -0.7
Tbk1 (TANK-binding kinase 1) | 2 | 0.281
Tbk1 (TANK-binding kinase 1) | 3 | -0.186
Tbk1 (TANK-binding kinase 1) | 4 | 0.498
Tbk1 (TANK-binding kinase 1) | 5 | 0.818
Tbk1 (TANK-binding kinase 1) | 6 | 1.45
Tlr7 (toll-like receptor 7) | 1 | -1.69 (active)
Tlr7 (toll-like receptor 7) | 2 | -1.91 (active)
Tlr7 (toll-like receptor 7) | 3 | -2.49 (active)
Tlr7 (toll-like receptor 7) | 4 | -1.66 (active)
Tlr7 (toll-like receptor 7) | 5 | -1.93 (active)
Tlr7 (toll-like receptor 7) | 6 | -1.36
Itgax (integrin alpha X) | 1 | 0.767
Itgax (integrin alpha X) | 2 | -0.337
Itgax (integrin alpha X) | 3 | -1.38
Itgax (integrin alpha X) | 4 | 0.0214
Itgax (integrin alpha X) | 5 | 0.973
Itgax (integrin alpha X) | 6 | 0.67
Cyld (CYLD lysine 63 deubiquitinase) | 1 | 0.121
Cyld (CYLD lysine 63 deubiquitinase) | 2 | -0.0517
Cyld (CYLD lysine 63 deubiquitinase) | 3 | -0.508
Cyld (CYLD lysine 63 deubiquitinase) | 4 | 0.989
Cyld (CYLD lysine 63 deubiquitinase) | 5 | -2.81 (active)
Cyld (CYLD lysine 63 deubiquitinase) | 6 | 0.815
Mapk8 (mitogen-activated protein kinase 8) | 1 | 0.975
Mapk8 (mitogen-activated protein kinase 8) | 2 | 0.095
Mapk8 (mitogen-activated protein kinase 8) | 3 | 0.0329
Mapk8 (mitogen-activated protein kinase 8) | 4 | -0.609
Mapk8 (mitogen-activated protein kinase 8) | 5 | -1.62 (active)
Mapk8 (mitogen-activated protein kinase 8) | 6 | 0.302
Chuk (conserved helix-loop-helix ubiquitous kinase) | 1 | 0.418
Chuk (conserved helix-loop-helix ubiquitous kinase) | 2 | -2.04 (active)
Chuk (conserved helix-loop-helix ubiquitous kinase) | 3 | 0.964
Chuk (conserved helix-loop-helix ubiquitous kinase) | 4 | -1.07
Chuk (conserved helix-loop-helix ubiquitous kinase) | 5 | -0.17
Chuk (conserved helix-loop-helix ubiquitous kinase) | 6 | 0.321
Rel (Rel proto-oncogene, NFKB subunit) | 1 | -0.467
Rel (Rel proto-oncogene, NFKB subunit) | 2 | -0.0545
Rel (Rel proto-oncogene, NFKB subunit) | 3 | -0.248
Rel (Rel proto-oncogene, NFKB subunit) | 4 | -0.36
Rel (Rel proto-oncogene, NFKB subunit) | 5 | -0.286
Rel (Rel proto-oncogene, NFKB subunit) | 6 | -0.449

An excerpt from the list above:
Target gene | reagent | mean Tnf reporter z-score
Cyld (CYLD lysine 63 deubiquitinase) | 1 | 0.121
Cyld (CYLD lysine 63 deubiquitinase) | 2 | -0.0517
Cyld (CYLD lysine 63 deubiquitinase) | 3 | -0.508
Cyld (CYLD lysine 63 deubiquitinase) | 4 | 0.989
Cyld (CYLD lysine 63 deubiquitinase) | 5 | -2.81 (active)
Cyld (CYLD lysine 63 deubiquitinase) | 6 | 0.815
Mapk8 (mitogen-activated protein kinase 8) | 1 | 0.975
Mapk8 (mitogen-activated protein kinase 8) | 2 | 0.095
Mapk8 (mitogen-activated protein kinase 8) | 3 | 0.0329
Mapk8 (mitogen-activated protein kinase 8) | 4 | -0.609
Mapk8 (mitogen-activated protein kinase 8) | 5 | -1.62 (active)

The results go on:
Target gene | reagent | mean Tnf reporter z-score
Map3k8 (mitogen-activated protein kinase kinase kinase 8) | 1 | -0.513
Map3k8 (mitogen-activated protein kinase kinase kinase 8) | 2 | 0.174
Map3k8 (mitogen-activated protein kinase kinase kinase 8) | 3 | -1.58 (active)
Map3k8 (mitogen-activated protein kinase kinase kinase 8) | 4 | 0.608
Map3k8 (mitogen-activated protein kinase kinase kinase 8) | 5 | -0.326
Map3k8 (mitogen-activated protein kinase kinase kinase 8) | 6 | -0.642
Dusp1 (dual specificity phosphatase 1) | 1 | 0.782
Dusp1 (dual specificity phosphatase 1) | 2 | 0.294
Dusp1 (dual specificity phosphatase 1) | 3 | 0.418
Dusp1 (dual specificity phosphatase 1) | 4 | 0.211
Dusp1 (dual specificity phosphatase 1) | 5 | -0.694
Dusp1 (dual specificity phosphatase 1) | 6 | -0.942
Elk1 (ETS transcription factor ELK1) | 1 | -1.58 (active)
Elk1 (ETS transcription factor ELK1) | 2 | 0.121
Elk1 (ETS transcription factor ELK1) | 3 | 0.0745
Elk1 (ETS transcription factor ELK1) | 4 | -3.01 (active)
Elk1 (ETS transcription factor ELK1) | 5 | -3.46 (active)
Elk1 (ETS transcription factor ELK1) | 6 | -1.97 (active)
Pik3cg | 1 | 0.918
Pik3cg | 2 | -2.77 (active)
Pik3cg | 3 | -0.104
Pik3cg | 4 | -0.505
Pik3cg | 5 | -3.9 (active)
Pik3cg | 6 | -3.37 (active)
Il12b (interleukin 12b) | 1 | -1.25
Il12b (interleukin 12b) | 2 | -0.847
Il12b (interleukin 12b) | 3 | -0.443
Il12b (interleukin 12b) | 4 | -0.0683
Il12b (interleukin 12b) | 5 | -0.781
Il12b (interleukin 12b) | 6 | 1.14
Pik3r5 (phosphoinositide-3-kinase regulatory subunit 5) | 1 | -0.141
Pik3r5 (phosphoinositide-3-kinase regulatory subunit 5) | 2 | -1.32
Pik3r5 (phosphoinositide-3-kinase regulatory subunit 5) | 3 | -1.45
Pik3r5 (phosphoinositide-3-kinase regulatory subunit 5) | 4 | -0.264
Pik3r5 (phosphoinositide-3-kinase regulatory subunit 5) | 5 | -1.9 (active)
Pik3r5 (phosphoinositide-3-kinase regulatory subunit 5) | 6 | 0.131
Map2k1 (mitogen-activated protein kinase kinase 1) | 1 | -0.32
Map2k1 (mitogen-activated protein kinase kinase 1) | 2 | -0.794
Map2k1 (mitogen-activated protein kinase kinase 1) | 3 | -1.11
Map2k1 (mitogen-activated protein kinase kinase 1) | 4 | 0.354
Map2k1 (mitogen-activated protein kinase kinase 1) | 5 | -0.399
Map2k1 (mitogen-activated protein kinase kinase 1) | 6 | -0.429
